Measurements reported in publication PMC8909127 (Frontiers in Microbiology, 2022).
Like-named read-outs stand apart in the source and are kept apart here. No constants are given. Whether binding was seen depends on the method and setting. For some of these results: Binding seen in cells or lysates may run through a third protein. Some binding calls cover weakened binding; strength is not graded here. For some of these results: Where a sequence is shown, tags or fusion partners need not be part of it.

The chains behind the UniProt entries cited, without tags or fusion partners. Residues count along the entry.
UniProt Q07157, residues 184-264: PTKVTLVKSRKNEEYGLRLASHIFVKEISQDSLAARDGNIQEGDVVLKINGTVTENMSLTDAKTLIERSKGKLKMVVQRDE
UniProt Q8TEW0, residues 582-685: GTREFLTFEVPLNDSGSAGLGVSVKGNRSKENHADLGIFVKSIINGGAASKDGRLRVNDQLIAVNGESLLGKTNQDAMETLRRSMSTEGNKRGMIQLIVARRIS
UniProt P0DTC4: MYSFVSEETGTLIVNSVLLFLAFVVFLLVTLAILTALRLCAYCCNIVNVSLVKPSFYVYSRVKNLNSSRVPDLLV

Columns and labels:
GST-PDZ ZO1 (human) [1] = target: GST-PDZ ZO1 (human) (UniProt Q07157); test: pull-down; […], NaCl 200 mM, 0.1% Triton; […]; only the target purified
GST-PDZ LNX2 (human) [2] = target: T1, GST-PDZ LNX2 (human) (UniProt Q8N448); test: as above
T1 sequence: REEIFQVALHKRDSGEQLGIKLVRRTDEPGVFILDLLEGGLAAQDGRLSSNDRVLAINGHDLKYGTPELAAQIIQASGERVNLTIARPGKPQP

GST-PDZ MPP5 (human) [3] = target: T2, GST-PDZ MPP5 (human) (UniProt Q8N3R9); test: as above
T2 sequence: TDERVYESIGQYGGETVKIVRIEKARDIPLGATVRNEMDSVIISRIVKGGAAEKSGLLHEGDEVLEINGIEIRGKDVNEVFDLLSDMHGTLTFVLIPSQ

GST-PDZ MLLT4 (human) [4] = target: T3, GST-PDZ MLLT4 (human) (UniProt P55196); test: as above
T3 sequence: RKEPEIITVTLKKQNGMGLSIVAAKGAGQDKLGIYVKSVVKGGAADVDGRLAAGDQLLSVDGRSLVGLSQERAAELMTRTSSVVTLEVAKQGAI

GST-PDZ ZO1 (human) [5] = target: GST-PDZ ZO1 (human) (UniProt Q07157); test: as above; remark: listed apart in the source
GST-PDZ PARD3 (human) = GST-PDZ PARD3 (human) (UniProt Q8TEW0); test: as above
GST-PDZ LNX2 (human) [6] = target: T1, GST-PDZ LNX2 (human); test: as above; remark: listed apart in the source
GST-PDZ MPP5 (human) [7] = target: T2, GST-PDZ MPP5 (human); test: as above; remark: listed apart in the source
GST-PDZ MLLT4 (human) [8] = target: T3, GST-PDZ MLLT4 (human); test: as above; remark: listed apart in the source
MLLT4 PDZ (human) = target: T4, MLLT4 PDZ (human) (UniProt P55196); test: crystal structure; both purified
T4 sequence: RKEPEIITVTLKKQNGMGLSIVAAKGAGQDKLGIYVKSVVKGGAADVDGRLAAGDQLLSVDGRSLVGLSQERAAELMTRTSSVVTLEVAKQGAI

Measured: binding

GFP-tagged wild-type full-length E protein (from UniProt P0DTC4 1-75)
binds: GST-PDZ ZO1 (human) [1] | GST-PDZ LNX2 (human) [2] | GST-PDZ MPP5 (human) [3] | GST-PDZ MLLT4 (human) [4]

NLNSSRVPDLLV (domain or fragment) [GFP-tagged cytoplasmic tail of protein E (last 12 residues)]
binds: GST-PDZ ZO1 (human) [5] | GST-PDZ PARD3 (human) | GST-PDZ LNX2 (human) [6] | GST-PDZ MPP5 (human) [7] | GST-PDZ MLLT4 (human) [8]

B1: C-terminal SARS-CoV-2-E PBM peptide (peptide)
peptide: NLNSSRVPDLLV
notes: also called SARS-CoV-2 WT; SARS-CoV-2 peptide E
binds: MLLT4 PDZ (human)
